The values are deposited in ChEMBL (CHEMBL3988442, “University of Dundee, Small-Polar-MMV Screening Library” (2021)).

T. brucei: 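Whole-parasite assay of Trypanosoma brucei over 72 hours; the read-out is not stated. Tested at 30 µM. The record gives no direction; compounds that gave an IC50 in retests scored well above the rest, so higher reads as stronger inhibition. Values scatter widely below zero; nearly all retest evidence comes from the higher of the two concentrations used. Of about 64,000 compounds tested this way, about 940 (1.5%) reached 50% or more in at least one test.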
Leishmania in macrophages: 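Cell assay of Leishmania donovani living inside macrophages; the read-out is not stated. Tested at 30 µM. Direction is inferred from retests: higher values go with stronger inhibition. Size under these conditions: about 69,000 compounds, about 1,000 of them at 50% or above in at least one test.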

Each number is a percent effect as filed. How 0% and 100% were set is not recorded. Most values in the screen are low, and negative values occur. The compounds are a random part of those screened. Two or more numbers in one place are separate tests of the same structure; such repeats can differ widely.

structure: Cn1cccc1C(=O)N1CCn2nnc(COc3cccnc3)c2C1.O=C(O)C(F)(F)F
T. brucei: 14.37
Leishmania in macrophages: 9.106

structure: CCOc1ccnc(N2CCN(C(=O)c3ccoc3)CC2)n1
T. brucei: -24
Leishmania in macrophages: -16.93

structure: CC(C)(C)S(=O)(=O)c1ccc(N2CCN(c3ccccc3)CC2)nn1
T. brucei: 13.52
Leishmania in macrophages: 14.11 & -0.998

structure: Cc1cc(C)c2c(C(=O)N(C)C)cc(-c3cnc(N)nc3)nc2c1
T. brucei: -37.67
Leishmania in macrophages: 20.93

structure: CSc1ccc(CN(C(=O)c2cc(C)[nH]c(=O)c2)C2CC2)cc1
T. brucei: 13.09
Leishmania in macrophages: 18.25

structure: Cc1ccc(CN(Cc2nc3c(cnn3C)c(=O)[nH]2)C(C)C)s1
T. brucei: -3.076
Leishmania in macrophages: 0.4703

structure: CC(C)NC(=O)N1CCCCC1c1nnc2n1CCNC2 (stereo not given)
Leishmania in macrophages: 3.97

structure: CC(C)(C)n1nc(C2CC2)cc1C(=O)NC1CCN(CC(N)=O)CC1
T. brucei: -49.62
Leishmania in macrophages: 18.01

structure: CC1COCCN1Cc1nc(-c2ccc(Br)s2)no1 (stereo not given)
T. brucei: -4.028
Leishmania in macrophages: 7.504

structure: CCCC(NC(=O)c1cc(C)ccc1O)c1nnn[nH]1 (stereo not given)
T. brucei: -24.86
Leishmania in macrophages: 9.58

structure: NC(=O)CN1CCN(S(=O)(=O)N2CCCC2c2ccco2)CC1 (stereo not given)
T. brucei: -57.02
Leishmania in macrophages: 7.985

structure: CCN1CC(C(=O)N2CCc3cc(C(=O)N(C)C)n(C)c3C2)CCC1=O (stereo not given)
Leishmania in macrophages: 9.534

structure: COc1ccc(CCNC(=O)c2ccc(=O)n(C)c2)c(Cl)c1
T. brucei: -136.1
Leishmania in macrophages: 16.64

structure: CN1CCN(C(=O)c2nnc3ccc(Cl)cc3n2)CC1
T. brucei: -7.507
Leishmania in macrophages: 3.235

structure: Cc1ccc(CCC(=O)N(C)CCN2CCOCC2)c(C)c1
T. brucei: 15.97
Leishmania in macrophages: 16.68

structure: Cc1ccc(N2CCCN(C(=O)C3CCCO3)CC2)nn1 (stereo not given)
T. brucei: -2.742
Leishmania in macrophages: 16.61

structure: CN(CC(O)C1CC1)C(=O)Nc1ccc(F)c(-n2cccc2)c1 (stereo not given)
T. brucei: 1.313
Leishmania in macrophages: 27.14

structure: CCN1CCN(Cc2nc(C)no2)CC1
T. brucei: -57.84
Leishmania in macrophages: 10.79

structure: Cc1ccsc1CN(C)c1cc(N2CCCC2CO)ncn1 (stereo not given)
T. brucei: -23.22
Leishmania in macrophages: -45.32

structure: COCCN1CCC(CNC(=O)c2c[nH]c(=O)c(Cl)c2)CC1
T. brucei: -6.256
Leishmania in macrophages: 20.57

structure: Cn1cccc1C(O)CNS(=O)(=O)c1ccccc1F (stereo not given)
T. brucei: 21.76
Leishmania in macrophages: 4.969 & -2.184

structure: [H][C@@]12C[C@H](c3noc(C)n3)O[C@]1([H])CCN(C(=O)c1ccc(C)o1)C2
T. brucei: -15.89
Leishmania in macrophages: -10.31

structure: c1ccc(CN2CCCC(CNc3ncnc4c3CCNCC4)C2)cc1 (stereo not given)
T. brucei: -28.07
Leishmania in macrophages: 9.777

structure: CC(C)c1nccn1C1CCCN(C(=O)c2cnc[nH]2)C1 (stereo not given)
T. brucei: 9.522
Leishmania in macrophages: -0.9

structure: CCNC(=O)CNS(=O)(=O)c1cc(Br)ccc1F
T. brucei: 5.487
Leishmania in macrophages: 23.73

structure: Cc1cc(N2CCCN(C(=O)Cc3cc(F)cc(F)c3)CC2)ccn1
T. brucei: -10.36
Leishmania in macrophages: 30.28

structure: CCc1ccccc1CNC(=O)CNC(=O)C(C)(C)C
T. brucei: -54.87
Leishmania in macrophages: -19.34

structure: COCCS(=O)(=O)NC(C)c1cccc(-n2cccn2)c1 (stereo not given)
T. brucei: -24.31
Leishmania in macrophages: 4.078

structure: CSc1ncccc1C(=O)NCc1ccc(CS(=O)(=O)NC(C)C)cc1
T. brucei: 11.62
Leishmania in macrophages: -3.444

3 of the entries, repeated:

- Cc1ccsc1CN(C)c1cc(N2CCCC2CO)ncn1 (stereo not given) : T. brucei: -23.22%; Leishmania in macrophages: -45.32%
- CSc1ccc(CN(C(=O)c2cc(C)[nH]c(=O)c2)C2CC2)cc1 : T. brucei: 13.09%; Leishmania in macrophages: 18.25%
- CC(C)(C)S(=O)(=O)c1ccc(N2CCN(c3ccccc3)CC2)nn1 : T. brucei: 13.52%; Leishmania in macrophages: 14.11% & -0.998%